Laboratory results: article PMC4674748, “Identification of the Replication Origins from Cyanothece ATCC 51142 and Their Interactions with the DnaA Protein: From In Silico to In Vitro Studies”

Target: T1, His6-DnaA (IV) (Cyanothece ATCC 51142) (UniProt B1X0X6)
T1 sequence (looked up, limits assumed): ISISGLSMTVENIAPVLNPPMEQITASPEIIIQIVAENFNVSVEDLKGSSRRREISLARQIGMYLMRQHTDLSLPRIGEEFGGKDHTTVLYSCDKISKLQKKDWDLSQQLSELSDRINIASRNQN
Test: EMSA
Conditions: 5-100 nM protein, 3 mM ATP, poly(dI-dC), lower affinity than Cbox23, EMSA: 20 mM Hepes/KOH pH 8.0, 5 mM Mg acetate, 1 mM Na2EDTA, 4 mM DTT, 0.2% Triton X-100, 3 mM ATP, 5 mg/mL BSA, 37 C 30 min, recombinant protein, protein details: N-terminal His6 (pET-28a, BamHI/HindIII)

“ATCTTGAATGTTGATAAATTTAAGTATTTATCCTCAACATTG (double strand) [Lbox23 (2Box10B, 42 nt)]”: binds more weakly.

A weaker result is weaker than the reference pair of the same experiment. Protein sequences can lack the tags named with them.
